From doi:10.1101/253815
These are yes or no findings as the source states them, for the method shown. Some binding calls cover weakened binding; strength is not graded here.

Protein sequences, listed by entry. Tags and fused reporters are not part of them.
UniProt Q9FHA2: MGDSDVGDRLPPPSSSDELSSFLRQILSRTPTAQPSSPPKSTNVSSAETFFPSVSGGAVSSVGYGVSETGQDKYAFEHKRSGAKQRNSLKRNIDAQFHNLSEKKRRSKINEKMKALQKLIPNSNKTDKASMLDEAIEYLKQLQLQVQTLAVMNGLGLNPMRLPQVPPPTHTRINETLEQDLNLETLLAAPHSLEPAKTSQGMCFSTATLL

Molecular target: T1, HECATE1 (HEC1), bait from pGBKT7-HEC1 (Arabidopsis thaliana) (UniProt Q9FHA7)
T1 sequence: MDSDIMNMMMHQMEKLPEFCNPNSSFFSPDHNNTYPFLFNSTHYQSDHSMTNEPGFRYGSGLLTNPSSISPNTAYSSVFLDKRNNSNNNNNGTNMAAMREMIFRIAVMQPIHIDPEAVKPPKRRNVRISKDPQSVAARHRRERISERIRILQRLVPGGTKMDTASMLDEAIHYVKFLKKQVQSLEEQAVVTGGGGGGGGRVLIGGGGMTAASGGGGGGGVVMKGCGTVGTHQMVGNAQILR
Assay: two-hybrid

With “ALCATRAZ (ALC), prey from pGADT7-ALC (from UniProt Q9FHA2 1-210)” the binding was “binds”.
